No constants are given. Whether binding was seen depends on the method and setting. In cells and extracts the contact can be indirect. Binding calls can cover weak binding; strength is not graded here.

Chains of the proteins cited; added tags and fusions are not shown. Lines headed by an entry give the natural chain unless they say otherwise; changes in a name come on top.
UniProt Q15172: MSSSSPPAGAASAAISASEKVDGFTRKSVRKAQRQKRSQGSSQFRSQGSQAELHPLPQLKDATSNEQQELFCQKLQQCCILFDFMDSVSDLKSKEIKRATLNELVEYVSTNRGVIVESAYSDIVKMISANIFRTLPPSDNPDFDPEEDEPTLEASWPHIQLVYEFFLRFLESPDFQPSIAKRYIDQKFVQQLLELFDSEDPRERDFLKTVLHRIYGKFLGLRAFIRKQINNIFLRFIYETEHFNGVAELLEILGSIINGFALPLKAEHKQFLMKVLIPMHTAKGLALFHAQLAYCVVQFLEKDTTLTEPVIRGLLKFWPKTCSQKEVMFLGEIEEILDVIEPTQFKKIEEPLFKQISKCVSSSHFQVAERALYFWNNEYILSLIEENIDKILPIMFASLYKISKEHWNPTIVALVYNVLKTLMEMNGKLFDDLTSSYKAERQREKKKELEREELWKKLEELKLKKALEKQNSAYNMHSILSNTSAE
UniProt P67775: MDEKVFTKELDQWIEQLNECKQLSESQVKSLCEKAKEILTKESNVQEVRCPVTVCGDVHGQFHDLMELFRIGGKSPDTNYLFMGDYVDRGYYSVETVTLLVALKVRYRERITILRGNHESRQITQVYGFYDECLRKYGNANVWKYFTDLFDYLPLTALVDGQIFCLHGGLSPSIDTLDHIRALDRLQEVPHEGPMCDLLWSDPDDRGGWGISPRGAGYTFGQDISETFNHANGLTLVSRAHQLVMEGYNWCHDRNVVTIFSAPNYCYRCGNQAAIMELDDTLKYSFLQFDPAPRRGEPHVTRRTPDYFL

For the assay, the target named is B56α expressed from V245 pCEP-4HA B56α (UniProt Q15172). As to the kind of experiment: co-IP; B56α antibody; lysates of HEK293-T cells co-transfected with B56α and HA-MED1 wild type or 2A mutants, 72 h post transfection; immunoblot. On the technique in general: In western blotting, separated proteins are transferred to a membrane and probed.

For the substance “PP2A-C (catalytic C subunit of the AC dimer; methylation state not told) (from UniProt P67775)”, the binding result was “binds”.

Source of the values: publication PMC10465527.
